Data reported in PubChem BioAssay AID445 (National Center for Advancing Translational Sciences (NCATS), 2006).
This is one part of the list. The main result of the screen is listed elsewhere. These columns were measured beside it and carry no call. Most of these compounds were active or inconclusive in the main read-out, so they are no random draw. The note in brackets gives the kind of curve behind each potency; many fits are weak.

Assay: IkB Signaling
Settings: ABC-DLBCL IkBa-CBG/CBR dual luciferase ratio (green luciferase fused to IkBa over red control in OCI-Ly3 lymphoma cells), 4 h
Summary of the method: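 In this assay, an IκBα–CBG68 fusion accumulates when IKK-driven degradation is blocked; native CBR normalizes for cell number. OCI-Ly3 cells were treated 4 h with compound and doxycycline, then green and red light read after Chroma-Glo addition.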

[1] = measured here: control luc red channel unless noted

CCCCS(=O)(=O)c1oc(-c2cccs2)nc1S(=O)(=O)c1ccc(F)cc1
AC50 [1]: 12.6 µM [falling, partial curve]

Cc1c(C(=O)N2CCN(c3ccc(F)cc3)CC2)sc2nc3n(c(=O)c12)CCC3
AC50 [1]: 6.31 µM [rising, single point]

O=C1CC(c2cc(F)cc(F)c2)c2cc3c(cc2N1)OCO3 (configuration not stated)
AC50 [1]: 39.8 µM [falling, single point]

CCN(C(=O)CSc1nnc(Cn2nnc3ccccc32)o1)c1nc(-c2ccccc2)cs1
AC50 [1]: 15.8 µM [falling, partial curve]

CCCOc1ccc(NC(=O)CC2C(=O)N(c3ccc(C)cc3)C(=O)N2CCc2ccncc2)cc1 (configuration not stated)
AC50 [1]: 39.8 µM [falling, single point]

COc1ccc(C(=O)c2ccc(OC)c(N)c2)cc1N
AC50 (measured here: IkB-luc green channel): 31.6 µM [rising, partial curve] | AC50 (measured here: control luc red channel): 10 µM [rising, partial curve]

Cc1ccc(CN(C(=O)COc2ccccc2[N+](=O)[O-])c2ccccn2)cc1
AC50 [1]: 39.8 µM [falling, single point]

CCC(CC)C(=O)Nc1nnc(S(=O)(=O)N2CCc3ccccc32)s1
AC50 [1]: 2.51 µM [rising, partial curve]

O=C(NCc1ccccc1Cl)C1CCN(C(=O)N2CCOc3ccccc32)CC1
AC50 [1]: 5.01 µM [falling, full curve]

Nc1nc(N)c2nc(CNc3ccc(C(=O)N[C@H](CCC(=O)O)C(=O)O)cc3)cnc2n1
AC50 [1]: 39.8 µM [rising, partial curve, poor fit] [measured here: IkB-luc green channel]

[O-][N+]1=c2ccc(Nc3ccccc3)cc2=NC12CCCCC2
AC50 [1]: 5.01 µM [falling, partial curve]

Cc1ccccc1CNC(=O)c1oc2c(c1C)-c1nn(Cc3ccc(Cl)cc3)cc1CC2
AC50 [1]: 15.8 µM [falling, single point]

CCC(Sc1nc(-c2ccccc2)[nH]c1S(=O)(=O)c1ccc(C)cc1)C(=O)O (configuration not stated)
AC50 [1]: 15.8 µM [falling, partial curve]

CCCCn1c(=S)[nH]c2c(oc3ccc(Cl)cc32)c1=O
AC50 [1]: 1 µM [falling, full curve, poor fit]

COc1ccc(N2CCN(C(=O)C3CCN(S(=O)(=O)c4cccc5nonc45)CC3)CC2)cc1
AC50 [1]: 3.16 µM [rising, partial curve]

O=C(Nc1ccc(-c2nc3ccccc3o2)c(O)c1)c1ccccc1
AC50 [1]: 3.16 µM [rising, partial curve]

O=S(=O)(c1ccc(F)cc1)N1CN(Cc2ccco2)c2nc3ccccc3nc21
AC50 [1]: 10 µM [falling, partial curve]

COc1ccc(NC(=O)Cn2c(=O)c3cccn3c3ccccc32)cc1Cl
AC50 [1]: 20 µM [falling, partial curve]

COc1cccc2sc(NC(=O)c3ccc(S(=O)(=O)N4CCC(C)CC4)cc3)nc12
AC50 [1]: 10 µM [falling, partial curve]

COc1ccc(C)cc1NC(=O)Nc1cc(C(=O)NCc2ccc(C)cc2)ccc1N1CCCC1
AC50 [1]: 3.98 µM [falling, partial curve]

CC1CCN(c2nc(-c3ccncc3)nc3ccccc23)CC1
AC50 [1]: 39.8 µM [falling, single point]

COc1ccc(-c2nc3sc(CCNC(=O)Cc4ccc(F)cc4)c(C)n3n2)cc1
AC50 [1]: 39.8 µM [falling, partial curve, poor fit]

CCOc1ccc(CNCc2c(C(=O)O)c(C)n(Cc3ccc(C)cc3)c2C)cc1
AC50 [1]: 31.6 µM [falling, single point]

CCCn1nnc(NC(=O)c2cccc(OCC(C)C)c2)n1
AC50 [1]: 3.16 µM [rising, partial curve]

CCOc1ccccc1OCCCCn1c(-c2ccc(Cl)cc2)nc2ccccc2c1=O
AC50 [1]: 15.8 µM [falling, partial curve]

COc1cc(Cl)c(NC(=O)CCc2nc3cccnc3n2-c2ccccc2)c(OC)c1
AC50 [1]: 25.1 µM [falling, single point]

O=C(CSc1nc2cc3ccccc3cc2[nH]1)Nc1ccc(F)cc1
AC50 [1]: 12.6 µM [falling, partial curve]

Cc1ccc(NC(=O)c2cnc(SCC(=O)N3CCCc4ccccc43)n(C)c2=O)cc1
AC50 [1]: 5.01 µM [falling, partial curve]

CC(C)(C)OC(=O)N1CCC(c2c(C(=O)N3CCN(c4ccccc4F)CC3)cnn2-c2ccccc2Cl)CC1
AC50 [1]: 25.1 µM [falling, partial curve]

CCOc1ccc(NC(=O)CCNS(=O)(=O)c2ccc3c(c2)CCCC(=O)N3)cc1
AC50 [1]: 39.8 µM [falling, single point]

Cc1ccc2cc(CCNC(=O)c3ccc(Br)o3)c(=O)[nH]c2c1
AC50 [1]: 12.6 µM [falling, partial curve]

CCOc1ccc(NC(=O)c2c(NCc3cccnc3)sc3c2CCC(C)C3)cc1 (configuration not stated)
AC50 [1]: 39.8 µM [falling, single point]

CCN(CC)C(=O)Cn1c(=O)n(-c2ccc(C)c(C)c2)c(=O)c2c(C)c(C(=O)N(CC)CC)sc21
AC50 [1]: 7.94 µM [rising, single point]

CCN1CCN(C(=O)c2cnn(-c3ccc(F)cc3F)c2C2CCN(C(=O)OC(C)(C)C)CC2)CC1
AC50 [1]: 1.26 µM [rising, partial curve]

CC(=O)c1sc(NC(=O)c2c(-c3ccccc3)c(-c3ccccc3)nn(C)c2=O)nc1C
AC50 [1]: 20 µM [falling, partial curve]

CSCSC1=C(C#N)C(c2ccccc2Cl)C(C(C)=O)=C(C)N1 (configuration not stated)
AC50 [1]: 10 µM [falling, partial curve]

CC1CCC(N2CC(=O)N(CCC3=CCCCC3)C(c3ccc(F)cc3)C2=O)CC1 (configuration not stated)
AC50 [1]: 39.8 µM [falling, partial curve]

O=C(CN1CCC(n2nnc3ccccc32)CC1)Nc1ccc2c(c1)CCC2
AC50 [1]: 15.8 µM [falling, partial curve]

CCn1c(SCc2nc3ccccc3s2)nc2cc(S(=O)(=O)N3CCOCC3)ccc21
AC50 [1]: 7.94 µM [falling, partial curve]

COc1cccc(C(=O)Nc2nc3ccc(S(=O)(=O)N4CCCC4)cc3s2)c1
AC50 [1]: 15.8 µM [falling, partial curve]

O=C(Nc1ccc(Br)cc1)c1cc(-c2cccs2)nc2ccccc12
AC50 [1]: 10 µM [rising, partial curve] [measured here: IkB-luc green channel]

CC1CCC(N2CC(=O)N(C3CCCCC3)C(c3ccc(Cl)cc3)C2=O)CC1 (configuration not stated)
AC50 [1]: 3.16 µM [rising, partial curve]

COc1ccc(-c2cc(C(=O)Oc3ccc(C)cc3)c3ccccc3n2)cc1
AC50 [1]: 5.01 µM [rising, full curve, poor fit]

CC(C)Oc1ccc(C(=O)N2CCC(c3nc4ccccc4o3)CC2)cc1
AC50 [1]: 10 µM [falling, partial curve]

O=C(CCC(=O)c1cccs1)Nc1ccccc1F
AC50 [1]: 20 µM [falling, partial curve]

Nc1nc(NCc2c(F)cccc2Cl)nn1-c1ccccc1
AC50 [1]: 25.1 µM [falling, single point]

O=C1CSC2(C(=O)N(Cc3ccccc3F)c3ccccc32)N1c1cccc(C(F)(F)F)c1 (configuration not stated)
AC50 [1]: 10 µM [falling, partial curve]

CC(C)(C)C1CCc2onc(C(=O)NCc3ccc(F)cc3)c2C1 (configuration not stated)
AC50 [1]: 15.8 µM [falling, partial curve]

c1coc(-c2nc3nc4ccccc4nc3n2CC2CCCO2)c1 (configuration not stated)
AC50 [1]: 12.6 µM [falling, partial curve]

Cc1ccc(S(=O)(=O)c2cnc(SCC(=O)Nc3ccc4c(c3)OCCO4)[nH]c2=O)cc1Cl
AC50 [1]: 10 µM [falling, partial curve]

Cc1ccccc1NC(=O)c1cn(-c2ccccc2)nc1-c1ccccc1
AC50 [1]: 0.00631 µM [rising, full curve, poor fit]

Cc1ccccc1-c1ccnc2[nH]n(-c3ccccc3)c(=O)c12
AC50 [1]: 20 µM [falling, partial curve]

COc1ccccc1C(=O)Nc1cccc(C(=O)OCc2cc(=O)n3nc(C4CC4)sc3n2)c1
AC50 [1]: 3.16 µM [falling, full curve, poor fit]

O=C(Nc1ccc(OC(F)(F)F)cc1)C(Cc1ccccc1)NS(=O)(=O)c1cccc2nsnc12 (configuration not stated)
AC50 [1]: 1.58 µM [falling, partial curve]

Cc1ccc(C)c(CNC(=O)c2ccc3c(c2)nc2n3CCOC2)c1
AC50 [1]: 0.0398 µM [falling, full curve, poor fit]

COc1cccc(CNC(=O)Cn2ccc3cc(S(=O)(=O)N4CCCC4)ccc32)c1OC
AC50 [1]: 3.16 µM [falling, full curve, poor fit]

CCOC(=O)c1c(Nc2ccc(O)cc2)nnc(-c2ccccc2)c1-c1ccccc1
AC50 [1]: 10 µM [falling, partial curve]

Cc1cc(Br)ccc1OCC(=O)N(Cc1nc(-c2ccccc2)no1)C(C)C
AC50 [1]: 25.1 µM [falling, partial curve]

CCc1ccc(C(=O)COC(=O)C(Cc2c[nH]c3ccccc23)NC(=O)c2ccc(CC)cc2)cc1 (configuration not stated)
AC50 [1]: 12.6 µM [falling, partial curve]

Cc1ccc(NC(=O)CSc2nnc(-c3nnn(-c4ccc(F)cc4)c3C)o2)cc1Br
AC50 [1]: 39.8 µM [falling, single point]

Cc1nc(-c2cccc(F)c2)sc1CCNC(=O)c1c(F)cccc1Cl
AC50 [1]: 15.8 µM [falling, single point]
